The list is a part of this screen's results and no random one: it is rich in T/C values a quarter to a half above the control, in often repeated tests (any T/C) and in doses without a T/C. Other doses and runs of a compound stand elsewhere. T/C: endpoint of the treated group in % of that of the vehicle group. Some doses have a count of surviving animals in place of a T/C: the source files T/C as zero there, which appears to mark a toxic dose or a test without result, not a measured value. Some survivor counts are full or nearly so, which does not show that the dose was tolerated: the source hardly ever lists a survival T/C far under the control, and the zero likely stands for such cases as well. Counts of survivors are from the toxicity check (mostly the fifth day) where no day follows; animals may have died later. Schedule codes are those of the source, taken here to give the interval after Q, in days (D) or hours (H), and the number of doses after X. Some doses were run more than once; their values stand side by side, smallest first. Where survival is the endpoint, the PubChem record calls one and a half times the control and up active, and a quarter to a half above the control has no call in these data; cut-offs in other NCI protocols can differ. Some T/C values are followed by the survivors on the day toxicity was checked, most often the fifth; where none is given, no animal had died by that day.
Tested on: P388 leukemia ip, CD2F1 mice, survival T/C
Assay: NCI In Vivo Anticancer Drug Screen. Data for tumor model P388 Leukemia (intraperitoneal) in CD2F1 (CDF1) mice
Conditions: T/C endpoint: median survival time, higher T/C = longer survival
[1] = dose: 100.0 mg/kg/injection, schedule: Q01DX005 (ip), vehicle: saline with Tween-80
[2] = dose: 240.0 mg/kg/injection, schedule: Q01DX005 (ip), vehicle: saline with Tween-80
[3] = dose: 200.0 mg/kg/injection, schedule: Q01DX005 (ip), vehicle: saline with Tween-80
[4] = dose: 40.0 mg/kg/injection, schedule: Q01DX005 (ip), vehicle: water
[5] = dose: 100.0 mg/kg/injection, schedule: Q01DX009 (ip), vehicle: saline
[6] = dose: 200.0 mg/kg/injection, schedule: Q01DX009 (ip), vehicle: saline
[7] = dose: 200.0 mg/kg/injection, schedule: Q01DX005 (ip), vehicle: Klucel (hydroxypropylcellulose) (HPC)

CN1CCC(/C=C/c2ccc(Cl)c(Cl)c2)CN1 (stereo not drawn) (tested in a mixture with another compound)
survivor count (dose: 50.0 mg/kg/injection, schedule: Q01DX001 (ip), vehicle: saline): 5 of 6
survivor count (dose: 200.0 mg/kg/injection, schedule: Q01DX001 (ip), vehicle: suspension in saline): 2 of 6
survivor count (dose: 400.0 mg/kg/injection, schedule: Q01DX001 (ip), vehicle: suspension in saline): 0 of 6

S=c1[nH]c(=S)c2[nH]c(=S)[nH]c2[nH]1
survivor count [1]: 6 of 6

C[n+]1cccc(NC(=O)c2ccccc2)c1
survivor count (dose: 60.0 mg/kg/injection, schedule: Q01DX005 (ip), vehicle: saline with Tween-80): 1 of 6
survivor count (dose: 120.0 mg/kg/injection, schedule: Q01DX005 (ip), vehicle: saline with Tween-80): 0 of 6
survivor count [2]: 0 of 6

CN(C)Cc1cn(C)c2ccccc12
survivor count (dose: 100.0 mg/kg/injection, schedule: Q01DX005 (ip), vehicle: saline): 0 of 5
survivor count (dose: 200.0 mg/kg/injection, schedule: Q01DX005 (ip), vehicle: saline): 0 of 6

CC1CCCCN1C (stereo not drawn)
survivor count [3]: 0 of 6

C#CCN1CC(OC)Nc2c(O)cccc2C1=O (stereo not drawn) (tested in a mixture with another compound)
T/C [4]: 128 % of control [4 of 5 alive]
survivor count [4]: 3 of 5

CC12CC(=O)CC1(C)CC(=O)C2 (stereo not drawn)
survivor count [5]: 2 of 6
survivor count [6]: 0 of 6

CS(C)=Nc1ccc([N+](=O)[O-])cc1
survivor count (dose: 400.0 mg/kg/injection, schedule: Q01DX001 (ip), vehicle: Klucel (hydroxypropylcellulose) (HPC)): 2 of 6

OCC1CCN(CCOCc2ccccc2)C1 (stereo not drawn)
survivor count [2]: 3 of 6

CCN(CC)CCOC(=O)C(OCCCc1ccccc1)(c1ccccc1)c1ccccc1
survivor count [7]: 4 of 6

OC1(O)CCC1(O)OCCBr (stereo not drawn)
survivor count [2]: 2 of 6

CCC(=O)NC(Cc1ccccc1F)C(=O)O (stereo not drawn)
survivor count [5]: 5 of 6

O=S(=O)(F)c1ncc2[nH]cnc2n1
survivor count [3]: 0 of 6

CC(=O)C[n+]1ccccc1Cc1ccccc1
survivor count [1]: 2 of 5

c1ccc([P+](CCN2Cc3ccccc3C2)(c2ccccc2)c2ccccc2)cc1
survivor count (dose: 25.0 mg/kg/injection, schedule: Q01DX009 (ip), vehicle: saline): 5 of 5 and 6 of 6

Brc1nn[nH]n1
survivor count (dose: 200.0 mg/kg/injection, schedule: Q01DX009 (ip), vehicle: Klucel (hydroxypropylcellulose) (HPC)): 2 of 6

O=C(CNCCCCNCCCNCC(=O)C(O)C(O)C(O)CO)C(O)C(O)C(O)CO (stereo not drawn)
survivor count (dose: 120.0 mg/kg/injection, schedule: Q01DX005 (ip), vehicle: saline): 3 of 6 and 5 of 6
survivor count (dose: 240.0 mg/kg/injection, schedule: Q01DX005 (ip), vehicle: saline): 0 of 6

COc1c(O)c2c(c3cc(C(=O)N4CCc5c4c(O)c(OC)c4[nH]c(C(=O)N6CC7CC78C6=CC(=O)c6[nH]cc(C)c68)cc54)[nH]c13)CCN2C(N)=O (stereo not drawn)
T/C (dose: 0.01 mg/kg/injection, schedule: Q04DX003 (ip), vehicle: DMSO): 135 % of control
T/C (dose: 0.02 mg/kg/injection, schedule: Q04DX003 (ip), vehicle: DMSO): 137 % of control
T/C (dose: 0.04 mg/kg/injection, schedule: Q04DX003 (ip), vehicle: DMSO): 147 % of control
T/C (dose: 0.05 mg/kg/injection, schedule: Q04DX003 (ip), vehicle: DMSO): 127 % of control
T/C (dose: 0.09 mg/kg/injection, schedule: Q04DX003 (ip), vehicle: DMSO): 126 % of control
T/C (dose: 0.11 mg/kg/injection, schedule: Q04DX003 (ip), vehicle: DMSO): 136 % of control
T/C (dose: 0.15 mg/kg/injection, schedule: Q04DX003 (ip), vehicle: DMSO): 131 % of control
survivor count (dose: 0.18 mg/kg/injection, schedule: Q04DX003 (ip), vehicle: DMSO): 8 of 8
T/C (dose: 0.25 mg/kg/injection, schedule: Q04DX003 (ip), vehicle: DMSO): 144 % of control
survivor count (dose: 0.3 mg/kg/injection, schedule: Q04DX003 (ip), vehicle: DMSO): 8 of 8
survivor count (dose: 0.3 mg/kg/injection, schedule: Q04DX003 (ip), vehicle: other): 6 of 6
survivor count (dose: 1.0 mg/kg/injection, schedule: Q04DX003 (ip), vehicle: other): 3 of 6
T/C (dose: 3.0 micrograms/kg/injection, schedule: Q04DX003 (ip), vehicle: other): 145 % of control
T/C (dose: 6.0 micrograms/kg/injection, schedule: Q01DX009 (ip), vehicle: other): 131 % of control
T/C (dose: 9.0 micrograms/kg/injection, schedule: Q01DX009 (ip), vehicle: other): 129 % of control
T/C (dose: 13.5 micrograms/kg/injection, schedule: Q01DX009 (ip), vehicle: other): 136 % of control
T/C (dose: 30.0 micrograms/kg/injection, schedule: Q04DX003 (ip), vehicle: other): 131 % of control
T/C (dose: 38.9 micrograms/kg/injection, schedule: Q04DX003 (ip), vehicle: DMSO): 147 % of control
T/C (dose: 38.9 micrograms/kg/injection, schedule: Q04DX003 (ip), vehicle: saline): 146 % of control
T/C (dose: 45.0 micrograms/kg/injection, schedule: Q04DX003 (ip), vehicle: other): 141 % of control
T/C (dose: 67.5 micrograms/kg/injection, schedule: Q04DX003 (ip), vehicle: other): 140 % of control
T/C (dose: 108.0 micrograms/kg/injection, schedule: Q04DX003 (ip), vehicle: saline): 143 % of control
T/C (dose: 180.0 micrograms/kg/injection, schedule: Q04DX003 (ip), vehicle: saline): 130 % of control
T/C (dose: 300.0 micrograms/kg/injection, schedule: Q01DX001 (ip), vehicle: other): 146 % of control
T/C (dose: 300.0 micrograms/kg/injection, schedule: Q04DX003 (ip), vehicle: DMSO): 135 % of control
survivor count (dose: 300.0 micrograms/kg/injection, schedule: Q04DX003 (ip), vehicle: other): 5 of 6

COc1cc(C2SCC(=O)N2c2nnc(C(F)(F)F)s2)cc(OC)c1OC (stereo not drawn)
survivor count [2]: 6 of 6

CCc1nc(N)nc(N)c1-c1ccc(N2CCCCC2)c([N+](=O)[O-])c1
T/C (dose: 200.0 mg/kg/injection, schedule: Q01DX009 (ip), vehicle: distilled water + Tween-80): 125 % of control
survivor count (dose: 400.0 mg/kg/injection, schedule: Q01DX009 (ip), vehicle: distilled water + Tween-80): 6 of 6

CCOC(=O)c1cnc2cc3c(cc2c1Nc1ccc2c(c1)OCO2)OCO3
survivor count (dose: 240.0 mg/kg/injection, schedule: Q01DX005 (ip), vehicle: Klucel + Tween-80): 3 of 6

COc1ccc(OC)c(NC=O)c1
survivor count (dose: 12.5 mg/kg/injection, schedule: Q01DX009 (ip), vehicle: saline with Tween-80): 6 of 6
survivor count (dose: 50.0 mg/kg/injection, schedule: Q01DX009 (ip), vehicle: saline with Tween-80): 6 of 6

CC(=O)OCc1c(-c2ccccc2)c(=O)c1=O
survivor count (dose: 120.0 mg/kg/injection, schedule: Q01DX005 (ip), vehicle: Klucel (hydroxypropylcellulose) (HPC)): 0 of 6
survivor count (dose: 240.0 mg/kg/injection, schedule: Q01DX005 (ip), vehicle: Klucel (hydroxypropylcellulose) (HPC)): 0 of 6

S=c1cc(S)sc2c1c(=S)sc1nc3ccccn3c(=S)c12
survivor count (dose: 50.0 mg/kg/injection, schedule: Q01DX005 (ip), vehicle: Klucel (hydroxypropylcellulose) (HPC)): 2 of 6
survivor count [7]: 2 of 6

CN(C)N=Nc1ccc(S(=O)(=O)Nc2ncccn2)cc1
T/C (dose: 17.5 mg/kg/injection, schedule: Q01DX009 (ip), vehicle: saline with Tween-80): 132 % of control
T/C (dose: 50.0 mg/kg/injection, schedule: Q04DX003 (ip), vehicle: saline with Tween-80): 146 % of control

COP(=O)(OC)OC.COP(=O)(OC)OC.COP(=O)(OC)OC.COP(=O)(OC)OC.COP(=O)(OC)OC.COP(=O)(OC)OC.[Mn+2].[O-][Cl+3]([O-])([O-])O
survivor count [5]: 6 of 6
T/C [6]: 129 % of control

O=C(CCl)NN=C1C2CC3CC(C2)CC1C3
survivor count (dose: 200.0 mg/kg/injection, schedule: Q01DX009 (ip), vehicle: saline with Tween-80): 1 of 6
survivor count (dose: 400.0 mg/kg/injection, schedule: Q01DX009 (ip), vehicle: saline with Tween-80): 0 of 6

O=c1[nH]c2cc([N+](=O)[O-])ccc2nc1/C=C(\O)c1cccc([N+](=O)[O-])c1
survivor count (dose: 120.0 mg/kg/injection, schedule: Q01DX005 (ip), vehicle: Klucel + Tween-80): 6 of 6
